Data from PubChem BioAssay AID248 (DTP/NCI, 2004).
The list is a part of this screen's results and no random one: it is rich in T/C values a quarter to a half above the control, in often repeated tests (any T/C) and in doses without a T/C. Other doses and runs of a compound stand elsewhere. T/C gives the treated animals as a percentage of the vehicle group. Some entries give survivors of the animals treated and no T/C: the source files T/C as zero there, which appears to mark a toxic dose or a test without result, not a measured value. Some survivor counts are full or nearly so, which does not show that the dose was tolerated: the source hardly ever lists a survival T/C far under the control, and the zero likely stands for such cases as well. Survivors were counted at the toxicity check, usually on the fifth day, unless a day is given; later deaths do not show. Schedules are NCI's codes, taken here to give the interval after Q, in days (D) or hours (H), and the number of doses after X. Some doses were run more than once; the results are listed from low to high. For survival time, this PubChem deposit counts one and a half times the control or more as active, and values a quarter to a half above the control carry no call in these data; other NCI protocols may use other cut-offs. Some T/C values are followed by the survivors on the day toxicity was checked, most often the fifth; without a count, all were alive then.

Tested on: L1210 leukemia ip in BDF1 mice, survival T/C
Assay: NCI In Vivo Anticancer Drug Screen. Data for tumor model L1210 Leukemia (intraperitoneal) in B6D2F1 (BDF1) mice
Conditions: T/C endpoint: mean survival time, higher T/C = longer survival
[1] = dose: 300.0 mg/kg/injection, schedule: Q01DX001 (ip), vehicle: saline
[2] = dose: 400.0 mg/kg/injection, schedule: Q04DX003 (ip), vehicle: saline with Tween-80
[3] = dose: 25.0 mg/kg/injection, schedule: Q01DX009 (ip), vehicle: saline
[4] = dose: 50.0 mg/kg/injection, schedule: Q01DX009 (ip), vehicle: saline
[5] = dose: 100.0 mg/kg/injection, schedule: Q01DX009 (ip), vehicle: saline
[6] = dose: 400.0 mg/kg/injection, schedule: Q01DX009 (ip), vehicle: saline
[7] = dose: 400.0 mg/kg/injection, schedule: Q04DX003 (ip), vehicle: saline
[8] = dose: 400.0 mg/kg/injection, schedule: Q01DX009 (ip), vehicle: saline with Tween-80
[9] = dose: 200.0 mg/kg/injection, schedule: Q01DX009 (ip), vehicle: Klucel (hydroxypropylcellulose) (HPC)
[10] = dose: 200.0 mg/kg/injection, schedule: Q04DX003 (ip), vehicle: Klucel (hydroxypropylcellulose) (HPC)
[11] = dose: 400.0 mg/kg/injection, schedule: Q04DX003 (ip), vehicle: Klucel (hydroxypropylcellulose) (HPC)
[12] = dose: 75.0 mg/kg/injection, schedule: Q01DX001 (ip), vehicle: saline
[13] = dose: 150.0 mg/kg/injection, schedule: Q01DX001 (ip), vehicle: saline
[14] = dose: 200.0 mg/kg/injection, schedule: Q04DX003 (ip), vehicle: saline
[15] = dose: 100.0 mg/kg/injection, schedule: Q01DX009 (ip), vehicle: Klucel (hydroxypropylcellulose) (HPC)

NS(=O)(=O)c1cc(Br)c2c(c1)S(=O)(=O)NCN2
T/C [1]: 139 % of control

O=CNc1ccccc1[N+](=O)[O-]
survivor count [2]: 3 of 3

CS(C)=O.CS(C)=O.CS(C)=O.[Cl][Rh]([Cl])[Cl]
survivor count (dose: 6.25 mg/kg/injection, schedule: Q01DX009 (ip), vehicle: saline): 6 of 6 | survivor count (dose: 12.5 mg/kg/injection, schedule: Q01DX009 (ip), vehicle: saline): 6 of 6 | T/C [3]: 106, 119, 127 % of control [5 of 6 alive] | survivor count [3]: 5 of 6 | T/C [4]: 95 [5 of 6 alive], 103 [5 of 6 alive], 105 % of control [4 of 6 alive] | survivor count [4]: 6 of 6 | survivor count [5]: 0 of 6 and 1 of 6 | survivor count (dose: 200.0 mg/kg/injection, schedule: Q01DX009 (ip), vehicle: saline): 0 of 6 | survivor count [6]: 0 of 6 | survivor count [7]: 1 of 6

O=C1Nc2ccccc2Cc2ccccc21
survivor count [8]: 6 of 6

CN(Cc1ccccc1O)C1CC2CCC1(C)C2(C)C (centres undefined)
survivor count (dose: 200.0 mg/kg/injection, schedule: Q04DX002 (ip), vehicle: saline): 0 of 3

CC(C)(C)C1(C)CNC(=O)O1 (centres undefined)
survivor count [9]: 4 of 6 | survivor count [10]: 5 of 6 | survivor count [11]: 3 of 6

Oc1ccc(N=Nc2ccccc2)c(O)c1.Oc1ccc(N=Nc2ccccc2)c(O)c1.[Cu]
survivor count (dose: 100.0 mg/kg/injection, schedule: Q01DX001 (ip), vehicle: carboxymethylcellulose (CMC)): 4 of 4 | survivor count (dose: 200.0 mg/kg/injection, schedule: Q01DX001 (ip), vehicle: carboxymethylcellulose (CMC)): 4 of 4

CCCC(=O)Nc1cccc(OC(=O)NC)c1
survivor count (dose: 200.0 mg/kg/injection, schedule: Q04DX003 (ip), vehicle: saline with Tween-80): 6 of 6

O=NN(CCO)C(=O)Nc1ccc(NC(=O)N(CCO)N=O)cc1
survivor count (dose: 93.0 mg/kg/injection, schedule: Q01DX001 (ip), vehicle: carboxymethylcellulose (CMC)): 2 of 6 | survivor count (dose: 187.0 mg/kg/injection, schedule: Q01DX001 (ip), vehicle: carboxymethylcellulose (CMC)): 1 of 6 | survivor count (dose: 375.0 mg/kg/injection, schedule: Q01DX001 (ip), vehicle: carboxymethylcellulose (CMC)): 1 of 6 | survivor count (dose: 500.0 mg/kg/injection, schedule: Q01DX001 (ip), vehicle: carboxymethylcellulose (CMC)): 0 of 6 | survivor count (dose: 750.0 mg/kg/injection, schedule: Q01DX001 (ip), vehicle: carboxymethylcellulose (CMC)): 0 of 6 | survivor count (dose: 1000.0 mg/kg/injection, schedule: Q01DX001 (ip), vehicle: carboxymethylcellulose (CMC)): 1 of 6 | survivor count (dose: 1500.0 mg/kg/injection, schedule: Q01DX001 (ip), vehicle: carboxymethylcellulose (CMC)): 0 of 6

Nc1ncnc(N)c1NC(=O)C1CCCCC1
survivor count (dose: 100.0 mg/kg/injection, schedule: Q01DX001 (ip), vehicle: Klucel (hydroxypropylcellulose) (HPC)): 3 of 6

CC1(C)OCC2SC(n3cnc4c(N)ncnc43)C(O)C2O1 (centres undefined)
survivor count (dose: 200.0 mg/kg/injection, schedule: Q01DX005 (ip), vehicle: saline): 3 of 6

CCN(CCCl)CCCNc1c2ccc(Cl)cc2nc2ccc(OC)nc12
survivor count (dose: 3.0 mg/kg/injection, schedule: Q01DX009 (ip), vehicle: saline): 4 of 6 | survivor count (dose: 10.0 mg/kg/injection, schedule: Q01DX009 (ip), vehicle: saline): 3 of 6 | survivor count (dose: 20.0 mg/kg/injection, schedule: Q01DX009 (ip), vehicle: saline): 0 of 6 | survivor count (dose: 30.0 mg/kg/injection, schedule: Q01DX009 (ip), vehicle: saline): 0 of 6 | survivor count (dose: 40.0 mg/kg/injection, schedule: Q01DX009 (ip), vehicle: saline): 0 of 6

CCOP(=O)(OCC)O/N=C(/c1ccccc1)C(C)C
survivor count [12]: 0 of 6 | survivor count (dose: 80.0 mg/kg/injection, schedule: Q01DX001 (ip), vehicle: saline): 0 of 6 | survivor count [13]: 0 of 6 | survivor count [1]: 0 of 6

Cc1ccc(Cl)cc1NC(=O)Nc1cc(C(C)C)ccc1C
survivor count [8]: 5 of 6

CCCn1c(O)c(C(=O)CC)sc1=S
survivor count (dose: 200.0 mg/kg/injection, schedule: Q01DX009 (ip), vehicle: saline with Tween-80): 0 of 3

CC(C)C(C#N)(CCCCN1CCCCC1)c1cccc2ccccc12 (centres undefined)
survivor count [2]: 1 of 6

NC(=O)C(=O)NCCCCN1CC1
survivor count [10]: 3 of 6 | survivor count [11]: 0 of 6

Cc1cc(C)c(-c2c(O)c(Br)c(-c3c(C)cc(C)c(Br)c3C)c(O)c2Br)c(C)c1Br
survivor count (dose: 100.0 mg/kg/injection, schedule: Q04DX003 (ip), vehicle: Klucel (hydroxypropylcellulose) (HPC)): 2 of 6 | survivor count (dose: 115.0 mg/kg/injection, schedule: Q01DX009 (ip), vehicle: Klucel (hydroxypropylcellulose) (HPC)): 0 of 6 | survivor count (dose: 170.0 mg/kg/injection, schedule: Q01DX009 (ip), vehicle: Klucel (hydroxypropylcellulose) (HPC)): 0 of 6 | survivor count [10]: 0 of 6 | survivor count [11]: 0 of 6

O=C(O)c1ccccc1C(=O)Nc1ccc(F)cc1
survivor count (dose: 100.0 mg/kg/injection, schedule: Q01DX001 (ip), vehicle: saline): 6 of 6

O=C(O)c1c(Cl)c([N+](=O)[O-])cc([N+](=O)[O-])c1Cl
survivor count [7]: 2 of 6

O=C(Nc1cc(Cl)ccc1Oc1cc(Cl)c(Cl)cc1S(=O)(=O)O)Nc1cc(Cl)ccc1Oc1cc(Cl)c(Cl)cc1S(=O)(=O)O
survivor count [1]: 3 of 6

C=CCOP(OCC=C)OCC=C
survivor count [14]: 2 of 6

CCC[As](=O)(O)CCC
survivor count [5]: 3 of 6 | survivor count [14]: 2 of 6 | survivor count [7]: 0 of 6

COc1ccc(COC(=O)Nc2ccccc2)cc1
survivor count (dose: 300.0 mg/kg/injection, schedule: Q01DX001 (ip), vehicle: carboxymethylcellulose (CMC)): 0 of 6

S=C(Nc1ccccc1)Nc1ccc(NC(=S)Nc2ccccc2)cc1
survivor count (dose: 400.0 mg/kg/injection, schedule: Q01DX001 (ip), vehicle: saline with Tween-80): 0 of 3

CNC(=O)Oc1ccc([N+](C)(C)C)cc1
survivor count (dose: 38.0 mg/kg/injection, schedule: Q01DX001 (ip), vehicle: saline): 3 of 6 | survivor count [12]: 0 of 6 | survivor count [13]: 0 of 6 | survivor count [1]: 0 of 6

CCCCCCC(/C=C/C=C/c1ccccc1)=N\O
survivor count [15]: 6 of 6

CN(C)N=Nc1ccccc1C(=O)NN
survivor count (dose: 150.0 mg/kg/injection, schedule: Q01DX009 (ip), vehicle: Klucel (hydroxypropylcellulose) (HPC)): 3 of 6 | survivor count (dose: 300.0 mg/kg/injection, schedule: Q01DX009 (ip), vehicle: Klucel (hydroxypropylcellulose) (HPC)): 0 of 6 and 1 of 6 | survivor count (dose: 400.0 mg/kg/injection, schedule: Q01DX001 (ip), vehicle: carboxymethylcellulose (CMC)): 0 of 4

O=C(CC(C(=O)c1ccccc1)N1CC1)c1ccccc1 (centres undefined)
survivor count (dose: 200.0 mg/kg/injection, schedule: Q01DX009 (ip), vehicle: saline sonified): 1 of 6

CCC(SC(C)=O)C(=O)O (centres undefined)
survivor count [7]: 1 of 6

Cc1nc2nc(C(F)(F)F)[nH]c2nc1C
survivor count [8]: 0 of 6

COP(=O)(O)Oc1ccccc1
survivor count (dose: 350.0 mg/kg/injection, schedule: Q01DX009 (ip), vehicle: saline with Tween-80): 0 of 6

COC(=O)c1cc([N+](=O)[O-])cc([N+](=O)[O-])c1O
survivor count [15]: 3 of 3 | survivor count [9]: 0 of 3 | survivor count (dose: 400.0 mg/kg/injection, schedule: Q04DX002 (ip), vehicle: saline with Tween-80): 0 of 3

COc1cc(C(=O)OC(C)CN2CCN(C(=O)c3cc(OC)c(OC)c(OC)c3)CC2)cc(OC)c1OC (centres undefined)
survivor count [6]: 4 of 6

Oc1ccc(Nc2ncnc3cc(Cl)ccc23)cc1CN(c1ccccc1)c1ccccc1
survivor count [7]: 2 of 6
